Reference: PubChem BioAssay AID743121 (NCATS, 2013)
Here is an unselected part of about 26,000 reagents. Over the whole deposit, 167 (0.63%) are marked active. 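Calls are per gene from RSA p-values that are not deposited; an individual active-marked siRNA can sensitise only weakly.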 Unmarked entries are inactive. The numbers tell different reagents against one gene apart. Not all columns of the deposit are shown. No sequences are given here.

Test: 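Partners whose loss is lethal together with topoisomerase I blockade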 (primary screen)
Cells: MDA-MB-231 cells, a human breast cancer line
Reagents: single siRNA against human genes, 20 nM siRNA (0.8 pmol per well)
Timing: 120 h (drug added 48 h after transfection, read 72 h later)
Conditions: camptothecin 20 nM (about EC30) for 72 h; vehicle 0.1% DMSO in parallel plates
Measurement: 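CellTiter-Glo ATP signal, scaled to control siRNA as percent viability; sensitisation given as log2 of untreated divided by camptothecin-treated viability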
Direction: log2 vehicle/camptothecin viability: higher = stronger sensitisation to camptothecin
Call rule: 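Active genes have an RSA gene-level p-value below 0.001, computed from the ratios of their separate siRNAs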

log2 vehicle/camptothecin viability, by target and reagent
MT1E (metallothionein 1E): #1 0.381; #2 -0.119; #3 0.052
CLEC4E (C-type lectin domain family 4 member E): #1 0.0877; #2 0.0802; #3 -0.138; #4 -0.237
NCOA3 (nuclear receptor coactivator 3): #1 -0.514; #2 0.639; #3 0.525
IL7 (interleukin 7): #1 -0.18; #2 -0.239; #3 0.0108; #4 -0.249
KCNA10 (potassium voltage-gated channel subfamily A member 10): #1 -0.318; #2 -0.407; #3 -0.256
RFPL2 (ret finger protein like 2): #1 0.11; #2 0.0965; #3 0.0522
GSR (glutathione-disulfide reductase): #1 0.073; #2 0.0975; #3 -0.0873
IL1B (interleukin 1 beta): #1 -0.406; #2 -0.186; #3 -0.389; #4 -0.464
PDILT (protein disulfide isomerase like, testis expressed): #1 0.0819; #2 -0.662; #3 -0.263; #4 -0.204
LRAT (lecithin retinol acyltransferase): #1 -0.351; #2 -0.333; #3 -0.347; #4 0.29
TNFRSF19 (TNF receptor superfamily member 19): #1 -0.47; #2 -0.146; #3 0.156

5 consecutive records already listed:
log2 vehicle/camptothecin viability, by target and reagent
CLEC4E (C-type lectin domain family 4 member E): #2 0.0802; #3 -0.138; #4 -0.237
NCOA3 (nuclear receptor coactivator 3): #1 -0.514; #2 0.639

The results go on.
log2 vehicle/camptothecin viability, by target and reagent
ITGA1 (integrin subunit alpha 1): #1 0.0228; #2 0.13; #3 0.0113
TRERF1 (transcriptional regulating factor 1): #1 -0.0957; #2 -0.053; #3 -0.137
KCNK4 (potassium two pore domain channel subfamily K member 4): #1 -0.666; #2 1.19; #3 -0.654; #4 -0.0128
ATP12A (ATPase H+/K+ transporting non-gastric alpha2 subunit): #1 -0.23; #2 -0.205; #3 0.0927; #4 -0.139
MMS19 (MMS19 cytosolic iron-sulfur assembly component): #1 -0.203; #2 -0.256; #3 -0.267; #4 0.134
PGLYRP1 (peptidoglycan recognition protein 1): #1 0.471; #2 -0.534; #3 0.211
TGFB1 (transforming growth factor beta 1): #1 -0.131; #2 0.0991; #3 -0.0934; #4 -0.0706
APAF1 (apoptotic peptidase activating factor 1): #1 -0.113; #2 -0.215; #3 -0.281; #4 -0.378
KNTC1 (kinetochore associated 1): #1 0.109; #2 -0.0914; #3 -0.12
PCSK5 (proprotein convertase subtilisin/kexin type 5): #1 -0.242; #2 -0.207; #3 -0.00275; #4 -0.0711
UGP2 (UDP-glucose pyrophosphorylase 2): #1 -0.429; #2 -0.33; #3 -0.0738; #4 -0.58
CD80 (CD80 molecule): #1 -0.119; #2 -0.0711; #3 0.0433
FBXO44 (F-box protein 44): #1 0.0275; #2 -0.182; #3 0.371
PFKFB4 (6-phosphofructo-2-kinase/fructose-2,6-biphosphatase 4): #1 -0.388; #2 -0.263; #3 -0.326; #4 -0.414
